Results reported in paper doi:10.1101/2021.12.07.471565.
Results are given in words; binding and its absence hold for the method and conditions named. Binding seen in cells or lysates may run through a third protein. Some results given as binding are weak or reduced against the parent protein; the word gives no strength. Sequences can lack the tags named with a protein.

T1: Arabidopsis thaliana REGULATOR OF G … 1 protein (AtRGS1), split-luciferase fusion (Arabidopsis thaliana) (UniProt Q8H1F2)
T1 sequence: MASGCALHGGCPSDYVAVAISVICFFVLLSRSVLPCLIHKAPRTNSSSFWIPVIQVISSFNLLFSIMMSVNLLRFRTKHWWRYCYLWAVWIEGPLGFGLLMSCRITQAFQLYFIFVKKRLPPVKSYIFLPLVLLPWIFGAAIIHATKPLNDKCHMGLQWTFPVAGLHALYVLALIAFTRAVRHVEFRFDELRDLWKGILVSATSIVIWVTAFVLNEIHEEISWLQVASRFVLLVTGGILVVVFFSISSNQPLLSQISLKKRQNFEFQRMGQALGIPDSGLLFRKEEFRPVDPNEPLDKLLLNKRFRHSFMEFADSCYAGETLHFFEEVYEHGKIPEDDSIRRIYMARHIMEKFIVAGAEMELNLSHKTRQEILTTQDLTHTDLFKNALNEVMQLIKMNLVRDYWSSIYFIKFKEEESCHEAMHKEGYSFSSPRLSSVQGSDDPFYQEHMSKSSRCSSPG

T2: AGB1/AGG1 (Gβγ): AtAGB1-nLUC co-expressed with mCherry-AtAGG1 (Arabidopsis thaliana) (UniProt P49177+Q9FDX9)
T2 sequence 1: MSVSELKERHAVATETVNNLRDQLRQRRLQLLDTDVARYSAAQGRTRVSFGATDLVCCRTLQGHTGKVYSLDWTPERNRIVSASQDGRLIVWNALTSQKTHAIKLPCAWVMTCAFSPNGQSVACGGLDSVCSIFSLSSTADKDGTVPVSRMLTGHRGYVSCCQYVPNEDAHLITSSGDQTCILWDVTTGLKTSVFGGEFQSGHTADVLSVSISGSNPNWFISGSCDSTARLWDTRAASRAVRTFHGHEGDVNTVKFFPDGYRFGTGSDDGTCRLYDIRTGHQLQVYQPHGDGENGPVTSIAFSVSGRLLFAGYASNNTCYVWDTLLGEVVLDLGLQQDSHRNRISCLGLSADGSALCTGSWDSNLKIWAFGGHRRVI
T2 sequence 2: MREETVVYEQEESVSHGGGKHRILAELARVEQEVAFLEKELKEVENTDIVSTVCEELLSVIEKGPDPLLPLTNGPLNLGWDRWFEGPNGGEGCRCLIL

T3: AGB1, Gβ subunit, nLUC fusion, expressed without AGG1 (Arabidopsis thaliana), P49177
T3 chain: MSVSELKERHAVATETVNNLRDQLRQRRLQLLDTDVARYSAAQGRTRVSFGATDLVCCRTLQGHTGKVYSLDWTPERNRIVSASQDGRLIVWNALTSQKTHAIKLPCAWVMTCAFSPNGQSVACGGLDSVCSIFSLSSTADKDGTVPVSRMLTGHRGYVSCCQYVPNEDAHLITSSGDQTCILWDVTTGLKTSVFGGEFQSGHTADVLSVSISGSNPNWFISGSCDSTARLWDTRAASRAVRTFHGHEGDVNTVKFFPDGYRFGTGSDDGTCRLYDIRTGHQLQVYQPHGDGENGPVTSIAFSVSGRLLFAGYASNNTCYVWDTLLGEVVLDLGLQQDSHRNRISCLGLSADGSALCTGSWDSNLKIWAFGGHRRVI

B1: ATBα, PROTEIN PHOSPHATASE 2A (PP2A) regulatory B subunit, alpha isoform, nLUC fusion (protein, UniProt Q38821 1-513)
chain: MNGGDEVVAASADPSLPLEWRFSQVFGERSAGEEVQEVDIISAIEFDNSGNHLATGDRGGRVVLFERTDTNNSSGTRRELEEADYPLRHPEFRYKTEFQSHDPEFDYLKSLEIEEKINKIRWCQTANGALFLLSTNDKTIKFWKVQDKKIKKICDMNSDPSRTVGNGTVASSSNSNITNSCLVNGGVSEVNNSLCNDFSLPAGGISSLRLPVVVTSHESSPVARCRRVYAHAHDYHINSISNNSDGETFISADDLRINLWNLEISNQSFNIVDVKPAKMEDLSEVITSAEFHPTHCNMLAYSSSKGSIRLIDLRQSALCDSHSKLFEEPEQAGPKSFFTEIIASVSDIKFAKEGRYLLSRDYMTLKLWDINMDAGPVATFQVHEYLKPKLCDLYENDSIFDKFECCISGNGLRAATGSYSNLFRVFGVAPGSTETATLEASRNPMRRHVPIPSRPSRALSSITRVVSRGSESPGVDGNTNALDYTTKLLHLAWHPNENSIACAAANSLYMYYA
B2: AtGPA1, canonical Gα subunit, cLUC fusion (protein, UniProt P18064 1-383)
chain: MGLLCSRSRHHTEDTDENTQAAEIERRIEQEAKAEKHIRKLLLLGAGESGKSTIFKQIKLLFQTGFDEGELKSYVPVIHANVYQTIKLLHDGTKEFAQNETDSAKYMLSSESIAIGEKLSEIGGRLDYPRLTKDIAEGIETLWKDPAIQETCARGNELQVPDCTKYLMENLKRLSDINYIPTKEDVLYARVRTTGVVEIQFSPVGENKKSGEVYRLFDVGGQRNERRKWIHLFEGVTAVIFCAAISEYDQTLFEDEQKNRMMETKELFDWVLKQPCFEKTSFMLFLNKFDIFEKKVLDVPLNVCEWFRDYQPVSSGKQEIEHAYEFVKKKFEELYYQNTAPDRVDRVFKIYRTTALDQKLVKKTFKLVDETLRRRNLLEAGLL
B3: ATBβ, PP2A regulatory B subunit, beta isoform, nLUC fusion (protein, UniProt Q39247 1-501)
chain: MNGGDDAATSGPPPSLEWRFSQVFGERTAGEEVQEVDIISAIEFDKSGDHLATGDRGGRVVLFERTDTKDHGGSRKDLEQTDYPVRHPEFRYKTEFQSHEPEFDYLKSLEIEEKINKIRWCQPANGALFLLSTNDKTIKYWKVQEKKIKKISEMNIDPSESSNIPPQLVTNGLPADKGHDYLSKDFSFPPGGIPSLRLPVVVTSQETNLVARCRRVYAHAHDYHINSISNSSDGETFISADDLRVNLWNLEISNQSFNIVDVKPTNMEDLTEVITSAEFHPIHCNMLAYSSSKGSIRLIDMRQSALCDSHTKLFEEPEAPGSRSFFTEIIASISDIKFSKDGRYILSRDYMTLKLWDINMDSGPVASYQVHEHLRPRLCDLYENDSIFDKFECCLSGDGLRVATGSYSNLFRVFGASQGSTEAATLEASKNPMRRQIQTPARPSRSIGSMTRVVRRGSESPGTEANGNAYDFTTKLLHMAWHPTENSIACAAANSLYMYYA
B4: AtGPA1, canonical Gα subunit, cLUC fusion, P18064 1-383 (protein)
chain: MGLLCSRSRHHTEDTDENTQAAEIERRIEQEAKAEKHIRKLLLLGAGESGKSTIFKQIKLLFQTGFDEGELKSYVPVIHANVYQTIKLLHDGTKEFAQNETDSAKYMLSSESIAIGEKLSEIGGRLDYPRLTKDIAEGIETLWKDPAIQETCARGNELQVPDCTKYLMENLKRLSDINYIPTKEDVLYARVRTTGVVEIQFSPVGENKKSGEVYRLFDVGGQRNERRKWIHLFEGVTAVIFCAAISEYDQTLFEDEQKNRMMETKELFDWVLKQPCFEKTSFMLFLNKFDIFEKKVLDVPLNVCEWFRDYQPVSSGKQEIEHAYEFVKKKFEELYYQNTAPDRVDRVFKIYRTTALDQKLVKKTFKLVDETLRRRNLLEAGLL

Tests used:
Assay in all cases: split reporter
[1] = target: T1, Arabidopsis thaliana REGULATOR OF G … 1 protein (AtRGS1), split-luciferase fusion (Arabidopsis thaliana)
[2] = target: T2, AGB1/AGG1 (Gβγ): AtAGB1-nLUC co-expressed with mCherry-AtAGG1 (Arabidopsis thaliana)
[3] = target: T3, AGB1, Gβ subunit, nLUC fusion, …; settings: remark: other sources report otherwise

Binder	binding [1]	further results
B1	binds	
B2		binding [2]: binds
B3	no binding	
B4		binding [3]: no binding
